Measured values from US20140010757A1 (Stanford University, published 2014).
These are yes or no findings as the source states them, for the method shown. Some entries that bind do so weakly or less than the wild type.

Sequences of proteins named here, by UniProt entry; tags and fusion partners are left off. A change or cut given only in a name is not applied to a line headed by its entry.
UniProt P06756: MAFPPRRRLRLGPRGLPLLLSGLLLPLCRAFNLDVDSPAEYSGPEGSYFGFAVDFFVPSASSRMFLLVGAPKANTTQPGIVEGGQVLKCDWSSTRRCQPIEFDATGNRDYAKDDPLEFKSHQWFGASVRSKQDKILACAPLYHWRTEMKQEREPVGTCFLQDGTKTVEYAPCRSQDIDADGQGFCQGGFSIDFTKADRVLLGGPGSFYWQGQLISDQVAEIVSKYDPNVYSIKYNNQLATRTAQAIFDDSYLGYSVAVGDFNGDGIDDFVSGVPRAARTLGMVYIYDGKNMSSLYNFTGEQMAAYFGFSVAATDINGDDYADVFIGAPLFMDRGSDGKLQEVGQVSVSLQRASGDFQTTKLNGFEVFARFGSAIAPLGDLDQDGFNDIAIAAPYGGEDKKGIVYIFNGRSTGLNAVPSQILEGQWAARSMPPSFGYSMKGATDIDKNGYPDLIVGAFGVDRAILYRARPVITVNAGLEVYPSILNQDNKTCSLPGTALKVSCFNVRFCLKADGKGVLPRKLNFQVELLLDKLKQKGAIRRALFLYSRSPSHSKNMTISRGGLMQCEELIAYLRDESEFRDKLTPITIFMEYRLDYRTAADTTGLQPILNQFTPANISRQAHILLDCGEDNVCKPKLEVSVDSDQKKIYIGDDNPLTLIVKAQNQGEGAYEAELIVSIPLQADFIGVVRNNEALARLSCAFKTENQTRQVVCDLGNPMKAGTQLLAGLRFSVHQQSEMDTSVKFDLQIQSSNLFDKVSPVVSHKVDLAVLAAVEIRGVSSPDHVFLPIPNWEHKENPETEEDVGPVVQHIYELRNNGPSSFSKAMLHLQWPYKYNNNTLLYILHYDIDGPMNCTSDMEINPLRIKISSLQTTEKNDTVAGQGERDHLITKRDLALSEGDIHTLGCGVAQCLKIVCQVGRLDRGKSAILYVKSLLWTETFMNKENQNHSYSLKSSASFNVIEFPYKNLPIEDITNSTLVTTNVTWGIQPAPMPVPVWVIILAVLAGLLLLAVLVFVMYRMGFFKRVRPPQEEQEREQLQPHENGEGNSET
UniProt P08648: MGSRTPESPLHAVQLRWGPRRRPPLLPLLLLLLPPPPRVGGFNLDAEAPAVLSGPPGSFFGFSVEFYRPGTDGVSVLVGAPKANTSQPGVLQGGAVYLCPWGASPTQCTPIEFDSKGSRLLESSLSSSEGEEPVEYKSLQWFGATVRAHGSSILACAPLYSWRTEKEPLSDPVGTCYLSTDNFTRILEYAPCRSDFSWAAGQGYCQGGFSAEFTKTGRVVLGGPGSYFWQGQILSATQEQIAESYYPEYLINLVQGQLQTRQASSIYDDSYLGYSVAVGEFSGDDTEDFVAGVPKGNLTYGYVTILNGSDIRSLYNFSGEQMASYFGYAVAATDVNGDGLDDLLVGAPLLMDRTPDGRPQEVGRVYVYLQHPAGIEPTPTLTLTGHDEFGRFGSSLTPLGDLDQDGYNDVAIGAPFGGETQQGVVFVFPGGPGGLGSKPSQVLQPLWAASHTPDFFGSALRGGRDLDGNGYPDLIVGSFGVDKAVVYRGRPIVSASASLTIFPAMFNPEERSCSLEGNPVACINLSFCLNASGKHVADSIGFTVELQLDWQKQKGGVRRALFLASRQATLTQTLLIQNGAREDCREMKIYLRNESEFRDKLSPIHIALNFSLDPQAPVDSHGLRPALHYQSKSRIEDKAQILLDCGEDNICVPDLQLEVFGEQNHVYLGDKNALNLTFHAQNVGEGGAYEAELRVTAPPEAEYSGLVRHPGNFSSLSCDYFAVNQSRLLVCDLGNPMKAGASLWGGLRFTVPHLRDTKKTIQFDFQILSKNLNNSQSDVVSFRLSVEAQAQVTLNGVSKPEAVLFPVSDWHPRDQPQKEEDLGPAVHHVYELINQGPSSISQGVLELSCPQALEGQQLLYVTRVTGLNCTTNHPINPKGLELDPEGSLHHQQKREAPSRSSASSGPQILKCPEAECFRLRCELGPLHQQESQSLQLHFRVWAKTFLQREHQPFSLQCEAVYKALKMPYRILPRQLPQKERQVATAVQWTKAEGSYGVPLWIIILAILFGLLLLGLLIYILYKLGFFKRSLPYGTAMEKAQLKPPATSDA

What was measured:
[1] = target: αvβ5 integrin (soluble / detergent-solubilized) (UniProt P06756); test: competition with ^125I-echistatin on plate-coated detergent-solubilized integrin
[2] = target: α5β1 integrin (detergent-solubilized) (UniProt P08648); test: as above

binding [1] | binding [2] | Binder
binds |  | GCVTGRGDSPASSCSQDSDCLAGCVCGPNGFCG (designed binder) [Loop-grafted FN-RGD (synthetic RGD-miniprotein)]
binds | binds | GCPRPRGDNPPLTCSQDSDCLAGCVCGPNGFCG (designed binder) [Miniprotein 2.5F (synthetic)]
binds |  | GCPQGRGDWAPTSCSQDSDCRAGCVCGPNGFCG (designed binder) [Miniprotein 2.5D (synthetic)]
binds |  | GCTIGRGDWAPSECSQDSDCLAGCVCGPNGFCG (designed binder) [Miniprotein 1.5B (synthetic)]
